Reference: PubChem BioAssay AID493014 (National Center for Advancing Translational Sciences (NCATS), 2011)
About 170 (0.05%) of roughly 340,000 compounds were called active. The inconclusive results got no clear call from the source; some entries with a clear call stand among them for comparison. The call rests on the fitted dose curve; in most records, active means well fitted inhibition curve with a large enough effect in the signal ratio, with a control signal flat (not every such curve was filed as active); inconclusive means small, poorly fitted or top-dose-only effect, or effect the other way, or a change in a side signal; inactive means flat fitted curve, though single readings scatter; the % refers to the signal ratio. Potencies of inconclusive entries are doubtful fits and often do not repeat.

assay: qHTS Assay to Find Inhibitors of Chronic Active B-Cell Receptor Signaling; settings: ABC-DLBCL IkBa-CBG/CBR reporter, luminescence ratio (green luciferase fused to IkBa over red control in TMD8 lymphoma cells), 4 h; activity change, negative = inhibition: at 46.1 µM (top of the series) unless noted;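 on activity change, negative = inhibition: plate controls were basal doxycycline-induced cells for no effect and cells given 10 µM MG132 for full effect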
Summary of the method: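 TMD8 ABC-DLBCL cells carrying doxycycline-inducible green luciferase fused to IkappaBalpha plus unfused red luciferase were exposed to compounds (up to 46 uM) for 4 hrs at 37C. Activity came from the overlap-corrected green/red luminescence ratio.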
Potency means the concentration at half of the fitted maximal effect.

Structure (SMILES)	activity change, negative = inhibition	Potency
N#CCCN1C(=O)C2(OCCO2)c2ccccc21	inconclusive: -0.755%	–
O=C(Nc1ccc2c(c1)nc1n2CCSC1)c1ccccc1	–	inconclusive: 18.4 µM [falling, partial curve]
O=C(NC(=S)Nc1cc([N+](=O)[O-])ccc1O)c1ccc2c(c1)OCO2	–	inconclusive: 5.01 µM [falling, partial curve]
Cc1cc(C(=O)Nc2cnn(Cc3ccc(Cl)cc3Cl)c2)no1	inconclusive: 11%	–
CC(=O)Nc1ccc(N=Cc2nc(-c3ccc(C)cc3)oc2O)cc1	inactive: 13.5%	–
CCN(CC)S(=O)(=O)c1ccc(N2CCc3ccccc3C2)nc1	inconclusive: -19.7%	–
O=C(N/N=C/c1ccc([N+](=O)[O-])o1)c1ccc(O)cc1	–	inconclusive: 20.6 µM [falling, partial curve]
O=C(COC(=O)CN1C(=O)C2CCCCC2C1=O)Nc1cc(S(=O)(=O)N2CCOCC2)ccc1Cl (configuration not stated)	inconclusive: 0.209%	–
Cn1nc(-c2ccc(Cl)cc2)nc2c(=O)n(C)c(=O)nc1-2	–	inconclusive: 3.55 µM [falling, partial curve]
Cc1ccc(-c2nn(-c3ccccc3)c3[nH]c(=O)c(CNCCN(C)C)cc23)cc1	inactive: -0.945%	–
Cc1cc(O)c2c(CN3CCN(Cc4ccccc4)CC3)cc(=O)oc2c1	–	inconclusive: 12.6 µM [falling, partial curve, poor fit]
COc1ccccc1CN1CCN(C(=O)c2ccco2)CC1	inconclusive: 2.75%	–
C/C(=N\Nc1ccc(C(=O)O)cc1)c1ccc(S(=O)(=O)NCc2ccco2)cc1	–	inconclusive: 3.55 µM [rising, partial curve, poor fit]
Cc1cc(C)cc(OCc2ccc(C(=O)NN)o2)c1	–	inconclusive: 12.6 µM [falling, partial curve]
Cn1nc(C(=O)NCc2ccc(F)cc2)c2ccccc2c1=O	inconclusive: 0.986%	–
O=C(c1ccncc1)N(c1ccc2oc3c(c2c1)CCCC3)S(=O)(=O)c1ccc(F)cc1	inconclusive: 8.71%	–
O=C(NCC1CCCO1)c1c(O)c2cccc3c2n(c1=O)CCC3 (configuration not stated)	inactive: 0.677%	–
Cc1cc(OCC(=O)N(C)Cc2ccccc2)cc(C)c1Cl	inconclusive: 5.2%	–
O=C(Cc1ccc([N+](=O)[O-])cc1)Nc1ccon1	inconclusive: 4.42%	–
O=C(O)CCN1C(=O)/C(=C\c2ccc(OCc3ccccc3)c(OCc3ccccc3)c2)SC1=S	–	inconclusive: 6.31 µM [falling, partial curve]
Cn1nnc2c(NCc3ccccc3)ncnc21	–	inconclusive: 10 µM [falling, partial curve, poor fit]
CN(c1cccc(NC(=O)CN(c2ccc(Cl)c(Cl)c2)S(=O)(=O)c2ccccc2)c1)S(C)(=O)=O	inconclusive: 1.37%	–
Cn1c(=O)c2[nH]c(N3CCN(c4ccccn4)CC3)nc2n(C)c1=O	inconclusive: 9.33%	–
Cc1ccccc1Nc1nc(-c2sc(NC(=O)c3ccc([N+](=O)[O-])cc3)nc2C)cs1	–	inconclusive: 17.8 µM [falling, single point]
COc1ccc(Cl)cc1NC(=O)C(=O)N/N=C/c1cc(C)n(-c2ccc(C)cc2)c1C	–	inconclusive: 5.8 µM [falling, full curve]
O=C(NCC1CCCO1)c1ccc(Br)c(S(=O)(=O)N2CCOCC2)c1 (configuration not stated)	inconclusive: 0.146%	–

Quoted at random: 5 compounds from above, in no set order.
Structure (SMILES)	activity change, negative = inhibition	Potency
O=C(COC(=O)CN1C(=O)C2CCCCC2C1=O)Nc1cc(S(=O)(=O)N2CCOCC2)ccc1Cl (configuration not stated)	inconclusive: 0.209%	–
Cn1nc(-c2ccc(Cl)cc2)nc2c(=O)n(C)c(=O)nc1-2	–	inconclusive: 3.55 µM [falling, partial curve]
Cc1ccc(-c2nn(-c3ccccc3)c3[nH]c(=O)c(CNCCN(C)C)cc23)cc1	inactive: -0.945%	–
O=C(Cc1ccc([N+](=O)[O-])cc1)Nc1ccon1	inconclusive: 4.42%	–
Cc1cc(OCC(=O)N(C)Cc2ccccc2)cc(C)c1Cl	inconclusive: 5.2%	–

Further records follow.

Structure (SMILES)	activity change, negative = inhibition	Potency
CN(Cc1ccccc1)C(=O)COC(=O)c1cc(Cl)nc(Cl)c1	inactive: 1.84%	–
O=C(Nc1ccc(Br)cc1)c1cc(-c2ccncc2)nc2ccccc12	inconclusive: -15.9%	–
O=S(=O)(c1cccc2cccnc12)N1CCN(c2ccccn2)CC1	inconclusive: -9.2%	–
CCC(C)(C)n1nnnc1C(c1cc2cccc(C)c2[nH]c1=O)N1CCN(C(=O)c2ccco2)CC1 (configuration not stated)	inconclusive: 4.13%	–
O=C(NCCN1CCOCC1)c1cc2ccccc2[nH]1	inconclusive: 14.4%	–
Cc1nn(-c2ccccc2)c(C)c1C(=O)OC(C)C(=O)NC1CCCCC1 (configuration not stated)	inconclusive: -4.94%	–
COc1ccc(N/N=C(\C#N)C(=N)SCc2ccccc2)cc1	inconclusive: 0.742%	–
COc1cc(SC)ccc1C(=O)OCC(=O)N1CCN(C(C)=O)CC1	inactive: 0.298%	–
CC[C@]12c3[nH]c4cc(-c5ccco5)ccc4c3CCN1C(=O)[C@@H](CC(=O)NCCc1ccccn1)C[C@@H]2C(=O)N1CCN(C(=O)c2ccco2)CC1	inconclusive: -0.682%	–
O=C(CCCCCNC(=O)N1CCn2c1nc1ccccc12)NCc1ccccc1Cl	inactive: 3.69%	–
Cc1nc2nc(SCC(=O)N3CCOCC3)nn2c(C)c1Cc1ccccc1	inactive: 5.53%	–
Cc1ccc(S(=O)(=O)Nc2cccc3cccnc23)cc1	–	inconclusive: 4.11 µM [falling, full curve]
COc1cc(C(=O)OC(C)CN2CCCC2)cc(OC)c1OC (configuration not stated)	–	inconclusive: 18.4 µM [falling, single point]
O=C(COC(=O)C(Cc1ccccc1)NC(=O)c1cccs1)NCc1ccccc1 (configuration not stated)	inconclusive: 1.45%	–
Cc1ccc(C(C(=O)NC2CCCCC2)N(Cc2ccccc2)C(=O)Cc2c[nH]c3ccccc23)o1 (configuration not stated)	inactive: -10.8%	–
CCN(CC(=O)Nc1c(F)cccc1F)C(=O)CNC(=O)c1ccc(C)s1	–	inconclusive: 31.6 µM [falling, single point]
CC(=O)Nc1cccc(NC(=O)C(=O)c2cn(CC(=O)N3CCCCC3)c3ccccc23)c1	–	inconclusive: 2.24 µM [falling, partial curve, poor fit]
Clc1cccc(-c2nc3nc4ccccc4nc3n2Cc2ccccc2)c1	inactive: 7.79%	–
CN1CCN(Cc2cccc(Oc3ccccc3)c2)CC1	inactive: 1.93%	–
Cc1cccn2c(=O)c3cc(C(=O)NCc4ccco4)c(=N)n(CCc4ccccc4)c3nc12	inconclusive: 1.12%	–
Cc1cccc(N2CCN(C(=O)CCNS(=O)(=O)c3ccc4c(c3)oc(=O)n4C)CC2)c1C	inactive: -7.05%	–
COC(=O)CSc1ccc(S(=O)(=O)N2CCCCCC2)cc1[N+](=O)[O-]	inconclusive: -21.1%	–
O=C(CN1CCC(NC(=O)c2cccc(F)c2)CC1)Nc1ccc(Br)cc1	inconclusive: 6.36%	–
Cc1cccn2c(=O)c3cc(C(=O)NC4CCCC4)c(=N)n(CCc4ccccc4)c3nc12	inactive: 3.16%	–
CC1CC1C(=O)Nc1nc2ccc(S(C)(=O)=O)cc2s1 (configuration not stated)	inconclusive: 2.8%	–
CC(C)(C)NC(=S)N/N=C/c1c(Cl)cccc1Cl	inconclusive: 11.8%	–

Structure (SMILES)	activity change, negative = inhibition	Potency
CCc1ccccc1NC(=O)CC(c1ccc(OC)cc1)n1cccc1 (configuration not stated)	–	inconclusive: 16.4 µM [falling, partial curve, poor fit]
c1ccc(-c2cc(N3CCCCCC3)n[nH]2)cc1	inconclusive: -15.9%	–
COc1cccc2sc(=NC(=O)CS(=O)(=O)c3ccc(Cl)cc3)n(C)c12	inactive: 4.15%	–
CCC(CC)C(=O)Nc1c2cnn(-c3ccccc3)c2nc(=O)n1-c1ccccc1	–	inconclusive: 35.5 µM [falling, single point]
COC(=O)CC/C(O)=C1/C(=N)CC(C)(C)CC1=O	inconclusive: -14%	–
CCOC(=O)C1CCN(Cc2nc3ccc([N+](=O)[O-])cc3c(=O)n2-c2ccc(OC)cc2OC)CC1	–	inconclusive: 22.4 µM [falling, single point]
CCCCc1ccc(NS(=O)(=O)c2cccc(C(=O)N3CCCN(C)CC3)c2)cc1	inconclusive: -5.35%	–
COc1ccc(NC(=O)Nc2nnc(-c3ccccc3SCc3ccccc3)s2)cc1	inconclusive: 3.5%	–
CCc1cccc(C)c1NC(=S)N(CCCN1CCN(C)CC1)Cc1cccs1	inconclusive: -13.7%	–
COc1ccc(/C=C2\CCc3ccccc3C2=O)cc1OC	inconclusive: -29.5%	–
CCOc1ccccc1NC(=O)C(CC(C)C)NC(=O)C1CCCCC1 (configuration not stated)	inconclusive: -2.6%	–
Nc1c(-c2ccccc2)c(CSc2nc3ccccc3[nH]2)nn1-c1ccc(Cl)cc1	inconclusive: 8.7%	–
CC(=O)Nc1cccc(NC(=O)c2ccc(C(=O)Nc3cccc(NC(C)=O)c3)nc2)c1	inactive: -7.92%	–
O=c1c2c(nc3nc(Cc4ccccc4)[nH]n13)CCC2	–	inconclusive: 25.9 µM [falling, partial curve, poor fit]
Cc1ccc(C(=O)Nc2cccc3cccnc23)cc1C	inconclusive: 8%	–
OC1c2cc(Br)ccc2N=C2CCCN21 (configuration not stated)	–	inconclusive: 15.8 µM [falling, single point]
COc1ccc(C2(C)NC(=O)N(CC(=O)N3CCc4ccccc43)C2=O)cc1OC (configuration not stated)	–	inconclusive: 32.6 µM [falling, partial curve, poor fit]
CN1CCCN(C(=O)CC(c2ccccc2)c2ccccc2)CC1	inconclusive: -74.4%	–
Cc1ccc(/C=C/c2ccc3cccc(O)c3n2)s1	–	inconclusive: 35.5 µM [falling, single point]
CCCn1c(=O)c(C(=O)Nc2ccccc2C(=O)OC)c(O)c2ccccc21	inconclusive: 4.44%	–
CC(=O)Nc1ccc(S(=O)(=O)NCC(=O)OCC(=O)N2CCN(c3ccccc3)CC2)cc1	inactive: 1.61%	–
C=CCN(c1ccccc1OC)S(=O)(=O)c1cccc(C(=O)NCc2cccs2)c1	–	inconclusive: 18.4 µM [rising, partial curve, poor fit]
CC(=NCc1ccncc1)C1=C(O)c2ccccc2C1=O	inconclusive: -2.36%	–
c1ccc(CCNc2nc(-c3ccncc3)cs2)cc1	–	inconclusive: 20 µM [falling, single point]
COc1ccc2c(c1)C(=NNc1ccc(C(=O)O)cc1)c1cc(OC)ccc1-2	inconclusive: -14.1%	–
